These results are taken from PubChem BioAssay AID328 (DTP/NCI, 2004).

The list shows only some results of the screen, not a fair sample: it gathers tests that were run many times, whatever their T/C, doses with no T/C, and many T/C values between a quarter and a half above the control. Other doses and runs of a compound stand elsewhere. T/C: endpoint of the treated group in % of that of the vehicle group. Some doses have a count of surviving animals in place of a T/C: the source holds a T/C of zero for them, seemingly a mark for toxic or unscored doses. Some doses without a T/C left all or most animals alive at the check, yet need not have been tolerated: survival well below the control is almost never listed, so the zero probably covers shortened survival too. Survivors were counted at the toxicity check, usually on the fifth day, unless a day is given; later deaths do not show. Schedules are NCI's codes, read here as Q, the interval in days (D) or hours (H), X, the number of doses. For survival time, this PubChem deposit counts one and a half times the control or more as active, and values a quarter to a half above the control carry no call in these data; other NCI protocols may use other cut-offs. Some entries were tested several times; the values are given in rising order. Some T/C values are followed by the survivors on the day toxicity was checked, most often the fifth; where none is given, no animal had died by that day.

The subject of the assay is BDF1 mice, P388 leukemia ip, median survival T/C. The assay can be described thus: NCI In Vivo Anticancer Drug Screen. Data for tumor model P388 Leukemia (intraperitoneal) in B6D2F1 (BDF1) mice. To be noted: T/C endpoint: median survival time, higher T/C = longer survival. In short, it runs like this:
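In tumour-bearing mice, survival after compound treatment is set against the vehicle group and given as a quotient.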

The mark [1] stands for this setting: dose: 2.0 mg/kg/injection, schedule: Q04DX003 (ip), vehicle: saline.
[2] abbreviates: dose: 50.0 mg/kg/injection, schedule: Q01DX009 (ip), vehicle: saline with Tween-80.
Where [3] appears, read: dose: 200.0 mg/kg/injection, schedule: Q01DX009 (ip), vehicle: saline with Tween-80.
The mark [4] stands for this setting: dose: 200.0 mg/kg/injection, schedule: Q04DX003 (ip), vehicle: saline.
Setting [5] is: dose: 100.0 mg/kg/injection, schedule: Q01DX009 (ip), vehicle: saline with Tween-80.

On to `Cc1c2cc3c(cc2cc2c4cc5c(cc4cc[n+]12)OCO5)OCO3` (tested in a mixture with another compound), for which the T/C is, setting by setting: (dose: 0.88 mg/kg/injection, schedule: Q04DX003 (ip), vehicle: saline) 136 % of control; (dose: 1.32 mg/kg/injection, schedule: Q04DX003 (ip), vehicle: saline) 140 % of control; under setting [1], 145 % of control; (dose: 18.7 mg/kg/injection, schedule: Q04DX003 (ip), vehicle: saline) 136 % of control. Also, the survivor count (dose: 12.5 mg/kg/injection, schedule: Q01DX009 (ip), vehicle: saline) is recorded as 6 of 6.
Turning to `CC(C)c1ccc(N2C(N)=NC(N)=NC2(C)C)cc1`, the survivor count is, setting by setting: (dose: 50.0 mg/kg/injection, schedule: Q01DX005 (ip), vehicle: Klucel (hydroxypropylcellulose) (HPC)) 2 of 6; (dose: 100.0 mg/kg/injection, schedule: Q01DX005 (ip), vehicle: Klucel (hydroxypropylcellulose) (HPC)) 0 of 6; (dose: 200.0 mg/kg/injection, schedule: Q01DX005 (ip), vehicle: Klucel (hydroxypropylcellulose) (HPC)) 0 of 6.
In the case of `O=C(O)CCCNSc1ccccc1[N+](=O)[O-]`, the T/C under setting [2] was 139 % of control. The survivor count under setting [3] was 1 of 6.
Consider `C[C@@H]1C[C@@H]([C@H](O)CC2CC(=O)NC(=O)C2)C(=O)[C@@H](C)C1`, for which the survivor count is, setting by setting: (dose: 5.0 mg/kg/injection, schedule: Q01DX010 (ip), vehicle: saline) 6 of 6; (dose: 10.0 mg/kg/injection, schedule: Q01DX010 (ip), vehicle: saline) 6 of 6; (dose: 30.0 mg/kg/injection, schedule: Q04DX003 (ip), vehicle: Klucel (hydroxypropylcellulose) (HPC)) 6 of 10; (dose: 90.0 mg/kg/injection, schedule: Q01DX010 (ip), vehicle: saline) 6 of 6; (dose: 120.0 mg/kg/injection, schedule: Q01DX009 (ip), vehicle: Klucel (hydroxypropylcellulose) (HPC)) 6 of 10; (dose: 135.0 mg/kg/injection, schedule: Q01DX010 (ip), vehicle: saline) 5 of 6. The survivor count is on record as 8 of 8 (dose: 180.0 mg/kg/injection, schedule: Q04DX003 (sc), vehicle: Klucel (hydroxypropylcellulose) (HPC)); 7 of 10 (dose: 240.0 mg/kg/injection, schedule: Q04DX003 (ip), vehicle: Klucel (hydroxypropylcellulose) (HPC)); 0 of 6 (dose: 300.0 mg/kg/injection, schedule: Q04DX003 (ip), vehicle: other); 7 of 8 (dose: 300.0 mg/kg/injection, schedule: Q04DX003 (sc), vehicle: Klucel (hydroxypropylcellulose) (HPC)); 0 of 6 (dose: 400.0 mg/kg/injection, schedule: Q04DX003 (ip), vehicle: other); 5 of 8 (dose: 500.0 mg/kg/injection, schedule: Q01DX001 (ip), vehicle: Klucel (hydroxypropylcellulose) (HPC)). In addition, the survivor count (dose: 500.0 mg/kg/injection, schedule: Q01DX001 (sc), vehicle: Klucel (hydroxypropylcellulose) (HPC)) is 3 of 8. Moreover, the T/C (dose: 40.0 mg/kg/injection, schedule: Q01DX010 (ip), vehicle: saline) is 128 % of control.
`Nc1nc(-c2ccccc2N=NN2CCN(N=Nc3ccccc3-c3nc(N)c4ccccc4n3)CC2)nc2ccccc12`: the T/C (dose: 3.12 mg/kg/injection, schedule: Q01DX009 (ip), vehicle: Klucel (hydroxypropylcellulose) (HPC)) was 125 % of control.
As for `CCN(CC)Cc1c(O)ccc2c3c(c(=O)oc12)CCCC3`, the survivor count (dose: 128.0 mg/kg/injection, schedule: Q01DX005 (ip), vehicle: saline) is recorded as 0 of 4 and the survivor count (dose: 256.0 mg/kg/injection, schedule: Q01DX005 (ip), vehicle: saline) was 0 of 4.
In the case of `COCCOC1=C(N2CC2)C(=O)C(OCCOC)=C(N2CC2)C1=O`, the T/C (dose: 0.6 mg/kg/injection, schedule: Q01DX009 (ip), vehicle: saline) is 127 % of control; the T/C under setting [1] was 143 % of control; the T/C (dose: 2.2 mg/kg/injection, schedule: Q04DX003 (ip), vehicle: saline) was 145 % of control. Besides, the survivor count is listed as 4 of 6 (dose: 25.0 mg/kg/injection, schedule: Q04DX003 (ip), vehicle: saline); 0 of 6 (dose: 100.0 mg/kg/injection, schedule: Q04DX003 (ip), vehicle: saline); 1 of 6 under setting [4]; 0 of 6 (dose: 400.0 mg/kg/injection, schedule: Q04DX003 (ip), vehicle: saline).
Regarding `COc1ccc2nc3c4ccccc4scc-3c2c1`, the T/C (dose: 225.0 mg/kg/injection, schedule: Q04DX003 (ip), vehicle: Klucel (hydroxypropylcellulose) (HPC)) is 138 % of control. Further, the survivor count (dose: 335.0 mg/kg/injection, schedule: Q04DX003 (ip), vehicle: Klucel (hydroxypropylcellulose) (HPC)) was 2 of 6.
In the case of `C=C(CC(=O)O)C(=O)O` (tested in a mixture with another compound), the T/C was 133 % of control (dose: 66.0 mg/kg/injection, schedule: Q01DX009 (ip), vehicle: saline, evaluated on day 20); 129 % of control (dose: 66.0 mg/kg/injection, schedule: Q01DX009 (ip), vehicle: saline, evaluated on day 30); 125 % of control [4 of 6 alive] (dose: 100.0 mg/kg/injection, schedule: Q01DX009 (ip), vehicle: saline, evaluated on day 20); 129 % of control (dose: 100.0 mg/kg/injection, schedule: Q01DX009 (ip), vehicle: saline, evaluated on day 30). Moreover, the survivor count (dose: 150.0 mg/kg/injection, schedule: Q01DX009 (ip), vehicle: saline) is 6 of 6.
`C[C@@H]1C[C@](O)([C@@H](C)Cl)C(=O)O[C@@H]2CCN3CC=C(COC(=O)[C@]1(C)O)[C@H]23`: the T/C (dose: 7.5 mg/kg/injection, schedule: Q01DX010 (ip), vehicle: saline) was 138 % of control and the T/C (dose: 15.0 mg/kg/injection, schedule: Q01DX010 (ip), vehicle: saline) is 133 % of control.
In the case of `CC1(C)N=C(N)N=C(N)N1c1cccc(C#N)c1`, the T/C reads like this: (dose: 50.0 mg/kg/injection, schedule: Q04DX003 (ip), vehicle: saline) 127 % of control; (dose: 75.0 mg/kg/injection, schedule: Q04DX003 (ip), vehicle: saline) 130 % of control. In addition, the survivor count under setting [4] is 0 of 6.
In the case of `Nc1[nH]c(=O)nc2nc[nH]c12`, the survivor count by setting is: (dose: 100.0 mg/kg/injection, schedule: Q01DX009 (ip), vehicle: saline) 6 of 6; (dose: 200.0 mg/kg/injection, schedule: Q01DX009 (ip), vehicle: saline) 6 of 6; (dose: 400.0 mg/kg/injection, schedule: Q01DX009 (ip), vehicle: saline) 6 of 6.
Take `C[As](C)SCC1OC2OC(C)(C)OC2C2OC(C)(C)OC12` (centres undefined): the T/C was 126 and 127 % of control under setting [5]; 136 [5 of 6 alive] and 141 % of control [5 of 6 alive] under setting [3]. The survivor count (dose: 400.0 mg/kg/injection, schedule: Q01DX009 (ip), vehicle: saline with Tween-80) was 3 of 6.
As for `Clc1nnc(Cl)c(Cl)c1Cl`, the T/C (dose: 1.3 mg/kg/injection, schedule: Q04DX003 (ip), vehicle: Klucel (hydroxypropylcellulose) (HPC)) is 125 % of control and the T/C (dose: 2.0 mg/kg/injection, schedule: Q04DX003 (ip), vehicle: Klucel (hydroxypropylcellulose) (HPC)) was 125 % of control. Also, the survivor count reads like this: (dose: 1.8 mg/kg/injection, schedule: Q01DX009 (ip), vehicle: saline) 6 of 6; (dose: 3.0 mg/kg/injection, schedule: Q04DX003 (ip), vehicle: Klucel (hydroxypropylcellulose) (HPC)) 5 of 6; (dose: 4.2 mg/kg/injection, schedule: Q01DX009 (ip), vehicle: saline) 0 of 6.
`CNC(=S)N/N=C(/C)CCC/C(C)=N/NC(=S)NC`: the survivor count runs as follows: under setting [2], 4 of 6; under setting [5], 3 of 6.
